Results on two molecules are retold here after article PMC7939381, “MMP activation–associated aminopeptidase N reveals a bivalent 14-3-3 binding motif” (The Journal of Biological Chemistry, 2021).

By UniProt entry, the sequences of proteins in these tests, tags left out.
UniProt P31946: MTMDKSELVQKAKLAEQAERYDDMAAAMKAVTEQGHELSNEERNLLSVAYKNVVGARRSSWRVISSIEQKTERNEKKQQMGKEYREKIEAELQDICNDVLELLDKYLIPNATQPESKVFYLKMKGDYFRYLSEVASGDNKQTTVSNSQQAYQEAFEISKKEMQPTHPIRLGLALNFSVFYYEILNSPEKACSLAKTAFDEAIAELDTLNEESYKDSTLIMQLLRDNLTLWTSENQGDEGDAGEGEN

Experiment [1] concerns the target T1, 14-3-3η, full length, N-terminally His6-tagged (human) (UniProt Q04917).
T1 sequence: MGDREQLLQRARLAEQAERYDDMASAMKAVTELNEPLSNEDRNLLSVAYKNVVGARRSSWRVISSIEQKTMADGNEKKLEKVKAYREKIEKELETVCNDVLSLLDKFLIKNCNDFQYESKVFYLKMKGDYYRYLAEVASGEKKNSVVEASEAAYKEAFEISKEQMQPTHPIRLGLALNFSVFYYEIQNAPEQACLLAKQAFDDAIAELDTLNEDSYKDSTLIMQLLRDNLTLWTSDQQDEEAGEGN
The experiment in a line: pull-down; competition: beads with biotin-1 and 14-3-3 captured from E. coli lysate incubated with 96 nmol soluble acetylated peptide 1 for 60 min, washed; SDS-PAGE; only the binder purified.

In experiment [2] the target is 14-3-3β/α, full length, N-terminally His6-tagged (human) (UniProt P31946). The experiment is described as above.
The target in experiment [3] is T2, biotinylated peptide 1, APN 38–46 pSer43 (human).
T2 sequence (peptide, phosphoserine at 43 (NKNANpSSPV); biotin via a PEG4 linker): NKNANSSPV
The experiment is described as follows: pull-down; biotinylated peptide on streptavidin Sepharose beads, incubated 120 min in lysate of E. coli overexpressing His6-14-3-3; 50 mM HEPES pH 7.4, 250 mM NaCl, 20 mM MgCl2; SDS-PAGE, NTA-Atto488 and Coomassie stain; only the target purified.

Experiment [4] concerns the target T3, biotinylated peptide 6, APN 39–47 pSer44 (human).
T3 sequence (peptide, phosphoserine at 44 (KNANSpSPVA); biotin via a PEG4 linker): KNANSSPVA
The experiment is described as above.

Results are given in words; binding and its absence hold for the method and conditions named. In cells and extracts the contact can be indirect. Some binding calls cover weakened binding; strength is not graded here. For some of these results: Tags and fused reporters may be left off the sequences shown.

On to NKNANSSPV (phosphoserine at 43 (NKNANpSSPV); N-terminal acetyl) [acetylated (label-free, unlabeled) peptide 1, APN 38–46 pSer43], for which the binding entry in experiment [1] and in experiment [2] was “binds” in each case.

B1: 14-3-3η, full length, N-terminally His6-tagged (protein, UniProt Q04917 1-246)
chain: T1 sequence
B1: the binding result in experiment [3] is on record as “binds”; in experiment [4], “no binding”.
